Measurements: patent publication US10994018B2 (priority 2017, dated 2021)
[ ]: non-standard residue; d: D form. The star is where a group is joined. Palmitoyl = CCCCCCCCCCCCCCCC(=O)*

Test: general procedure: Fmoc solid-phase peptide synthesis
Conditions: whole synthesis, wavelength 230 nm

Palmitate-Gln-His-Trp-Ser-Tyr-DLeu-Leu-Arg-Pro-NHEt [P4]
final HPLC purity (acetate salt): 98.3%

Palmitate-Gln-His-Trp-Ser-Tyr-DLeu-Leu-Arg-Pro-NHEt [P2]
final HPLC purity (sodium salt): 98.2%

Palmitoyl-EHWSY[dL]LRP-NHEt (SMILES CCCCCCCCCCCCCCCC(=O)N[C@@H](CCC(=O)O)C(=O)N[C@@H](Cc1c[nH]cn1)C(=O)N[C@@H](Cc1c[nH]c2ccccc12)C(=O)N[C@@H](CO)C(=O)N[C@@H](Cc1ccc(O)cc1)C(=O)N[C@H](CC(C)C)C(=O)N[C@@H](CC(C)C)C(=O)N[C@@H](CCCNC(=N)N)C(=O)N1CCC[C@H]1C(=O)NCC) [P3]
final HPLC purity (acetate salt): 98.1%

Palmitate-Glu-His-Trp-Ser-Tyr-DLeu-Leu-Arg-Pro-NHEt [P1]
final HPLC purity (sodium salt): 98.2%
